# Publication PMC8384837
# Where a chain is given by its changes, count along the chain named. The list shows a part of the results. For some assays here: At the low end of the ranking the order means little. For some assays here: The source does not settle which construct or isoform was used.
# Experiments:
# Settings in all cases: yeast three-hybrid, YBZ-1, SC-Leu-His + 0.5 mM 3-AT, 4 days
# [1] = target: T1, PUM1 PUF domain R1-QFR R2-VFQ R7-NPG S863Q + R864F + Q867R + N899V + Y900F + S1079N + N1080P + E1083G (UniProt Q14671)
# T1 sequence: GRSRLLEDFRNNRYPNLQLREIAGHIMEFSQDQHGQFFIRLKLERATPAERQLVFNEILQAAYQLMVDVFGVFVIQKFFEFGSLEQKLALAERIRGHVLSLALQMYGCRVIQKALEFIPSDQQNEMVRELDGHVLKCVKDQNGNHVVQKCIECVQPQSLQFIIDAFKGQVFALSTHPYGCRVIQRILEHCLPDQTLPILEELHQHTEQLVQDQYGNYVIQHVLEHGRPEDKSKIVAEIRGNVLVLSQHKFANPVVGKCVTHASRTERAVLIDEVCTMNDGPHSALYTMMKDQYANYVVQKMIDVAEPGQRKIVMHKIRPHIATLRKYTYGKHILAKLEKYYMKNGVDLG
# [2] = target: T2, PUM1 PUF domain R2-VFQ R3-THE R4-TFR N899V + Y900F + C935T + R936H + Q939E + N971T + H972F + Q975R (UniProt Q14671)
# T2 sequence: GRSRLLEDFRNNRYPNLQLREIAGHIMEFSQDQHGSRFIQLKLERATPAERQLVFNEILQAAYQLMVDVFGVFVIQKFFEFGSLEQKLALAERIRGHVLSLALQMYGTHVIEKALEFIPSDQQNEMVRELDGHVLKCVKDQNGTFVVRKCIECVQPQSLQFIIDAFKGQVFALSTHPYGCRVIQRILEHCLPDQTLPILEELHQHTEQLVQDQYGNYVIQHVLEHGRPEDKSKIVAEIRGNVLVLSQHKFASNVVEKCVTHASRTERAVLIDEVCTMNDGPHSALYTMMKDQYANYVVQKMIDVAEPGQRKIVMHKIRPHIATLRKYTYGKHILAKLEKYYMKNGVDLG
# [3] = target: T3, PUM1 PUF domain R3-THE R4-TFR R7-NPG C935T + R936H + Q939E + N971T + H972F + Q975R + S1079N + N1080P + E1083G (Homo sapiens) (UniProt Q14671)
# T3 sequence: T2 sequence with V72N, F73Y, S252N, N253P, E256G
# [4] = target: T4, PUM1 PUF domain R5-PHQ R6-SWD C1007P + R1008H + N1043S + Y1044W + Q1047D (UniProt Q14671)
# T4 sequence: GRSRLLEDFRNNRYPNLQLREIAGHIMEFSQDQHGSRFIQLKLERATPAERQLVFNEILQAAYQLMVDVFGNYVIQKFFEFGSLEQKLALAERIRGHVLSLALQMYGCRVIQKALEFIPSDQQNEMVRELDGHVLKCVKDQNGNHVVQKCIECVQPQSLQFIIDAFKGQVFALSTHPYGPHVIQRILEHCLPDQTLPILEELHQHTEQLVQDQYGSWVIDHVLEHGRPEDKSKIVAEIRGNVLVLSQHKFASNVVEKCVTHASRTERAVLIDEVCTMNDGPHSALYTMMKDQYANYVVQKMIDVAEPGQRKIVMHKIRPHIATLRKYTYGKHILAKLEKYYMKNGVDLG
# [5] = target: T5, PUM1 PUF domain R6-SWD R7-NPG N1043S + Y1044W + Q1047D + S1079N + N1080P + E1083G (Homo sapiens) (UniProt Q14671)
# T5 sequence: T4 sequence with P180C, H181R, S252N, N253P, E256G
# [6] = target: T6, PUM1 PUF domain R3-THE R4-TFR C935T + R936H + Q939E + N971T + H972F + Q975R (UniProt Q14671)
# T6 sequence: T2 sequence with V72N, F73Y
# [7] = target: T7, PUM1 PUF domain R3-THE R4-TFR C935T + R936H + Q939E + N971T + H972F + Q975R (Homo sapiens) (UniProt Q14671)
# T7 sequence: T2 sequence with V72N, F73Y
sequence,measurement,setting,value
GGCUAGAACUAGUGGAUCCCCCGGCGCCCGGCGGCUCGAGCCCGGGUAAGACGAAUAAGUCUGCAUGCCGCCGGGCGCCAUGCCUGCAGGUCGACUCUAGAAAACAUG,binding signal (log2 enrichment (interaction score)),[1],-4.05
same,binding signal (log2 enrichment (interaction score)),[2],-4.22
same,binding signal (log2 enrichment (interaction score)),[3],< -1.27
same,binding signal (log2 enrichment (interaction score)),[4],-6.86
same,binding signal (log2 enrichment (interaction score)),[5],-0.37
GGCUAGAACUAGUGGAUCCCCCGGCGCCCGGCGGCUCGAGCCCGGGUAAGUGUGAAUCGUCUGCAUGCCGCCGGGCGCCAUGCCUGCAGGUCGACUCUAGAAAACAUG,binding signal (log2 enrichment (interaction score)),[1],-5.95
same,binding signal (log2 enrichment (interaction score)),[2],-5.81
same,binding signal (log2 enrichment (interaction score)),[4],-6.8
GGCUAGAACUAGUGGAUCCCCCGGCGCCCGGCGGCUCGAGCCCGGGUAAGUUGAAGCCGUCUGCAUGCCGCCGGGCGCCAUGCCUGCAGGUCGACUCUAGAAAACAUG,binding signal (log2 enrichment (interaction score)),[1],-4.29
same,binding signal (log2 enrichment (interaction score)),[2],< -6.61
same,binding signal (log2 enrichment (interaction score)),[3],-1.99
same,binding signal (log2 enrichment (interaction score)),[4],< -7.27
GGCUAGAACUAGUGGAUCCCCCGGCGCCCGGCGGCUCGAGCCCGGGUAAGUGUACGUAGUCUGCAUGCCGCCGGGCGCCAUGCCUGCAGGUCGACUCUAGAAAACAUG,binding signal (log2 enrichment (interaction score)),[1],-6.11
same,binding signal (log2 enrichment (interaction score)),[2],-5.32
same,binding signal (log2 enrichment (interaction score)),[3],-1.99
same,binding signal (log2 enrichment (interaction score)),[4],-7.8
same,binding signal (log2 enrichment (interaction score)),[5],-0.92
GGCUAGAACUAGUGGAUCCCCCGGCGCCCGGCGGCUCGAGCCCGGGUAAGGUUAAGUAGUCUGCAUGCCGCCGGGCGCCAUGCCUGCAGGUCGACUCUAGAAAACAUG,binding signal (log2 enrichment (interaction score)),[1],-6.27
same,binding signal (log2 enrichment (interaction score)),[2],-2.17
same,binding signal (log2 enrichment (interaction score)),[4],-7.71
GGCUAGAACUAGUGGAUCCCCCGGCGCCCGGCGGCUCGAGCCCGGGUAAGUUAAAGCAGUCUGCAUGCCGCCGGGCGCCAUGCCUGCAGGUCGACUCUAGAAAACAUG,binding signal (log2 enrichment (interaction score)),[1],-4.53
same,binding signal (log2 enrichment (interaction score)),[2],-5.54
same,binding signal (log2 enrichment (interaction score)),[4],< -7.81
GGCUAGAACUAGUGGAUCCCCCGGCGCCCGGCGGCUCGAGCCCGGGUAAGUACAAGUAGUCUGCAUGCCGCCGGGCGCCAUGCCUGCAGGUCGACUCUAGAAAACAUG,binding signal (log2 enrichment (interaction score)),[1],-7.58
same,binding signal (log2 enrichment (interaction score)),[6],-7.78
GGCUAGAACUAGUGGAUCCCCCGGCGCCCGGCGGCUCGAGCCCGGGUAAGUCGACCACGUCUGCAUGCCGCCGGGCGCCAUGCCUGCAGGUCGACUCUAGAAAACAUG,binding signal (log2 enrichment (interaction score)),[1],-3.47
same,binding signal (log2 enrichment (interaction score)),[6],-6.56
GGCUAGAACUAGUGGAUCCCCCGGCGCCCGGCGGCUCGAGCCCGGGUAAGUGUUAGCAGUCUGCAUGCCGCCGGGCGCCAUGCCUGCAGGUCGACUCUAGAAAACAUG,binding signal (log2 enrichment (interaction score)),[1],-5.13
same,binding signal (log2 enrichment (interaction score)),[6],-7.79
GGCUAGAACUAGUGGAUCCCCCGGCGCCCGGCGGCUCGAGCCCGGGUAAGUGUGCGUAGUCUGCAUGCCGCCGGGCGCCAUGCCUGCAGGUCGACUCUAGAAAACAUG,binding signal (log2 enrichment (interaction score)),[1],-5.12
same,binding signal (log2 enrichment (interaction score)),[7],-0.8
same,binding signal (log2 enrichment (interaction score)),[4],< -7.02
GGCUAGAACUAGUGGAUCCCCCGGCGCCCGGCGGCUCGAGCCCGGGUAAGAUGACGUGGUCUGCAUGCCGCCGGGCGCCAUGCCUGCAGGUCGACUCUAGAAAACAUG,binding signal (log2 enrichment (interaction score)),[1],-3.66
same,binding signal (log2 enrichment (interaction score)),[6],-5.79
GGCUAGAACUAGUGGAUCCCCCGGCGCCCGGCGGCUCGAGCCCGGGUAAGCGGACAUCGUCUGCAUGCCGCCGGGCGCCAUGCCUGCAGGUCGACUCUAGAAAACAUG,binding signal (log2 enrichment (interaction score)),[1],-5.14
same,binding signal (log2 enrichment (interaction score)),[2],-5.46
same,binding signal (log2 enrichment (interaction score)),[4],-6.8
GGCUAGAACUAGUGGAUCCCCCGGCGCCCGGCGGCUCGAGCCCGGGUAAGUGGAAAAGGUCUGCAUGCCGCCGGGCGCCAUGCCUGCAGGUCGACUCUAGAAAACAUG,binding signal (log2 enrichment (interaction score)),[1],-4.36
same,binding signal (log2 enrichment (interaction score)),[6],< -7.03
GGCUAGAACUAGUGGAUCCCCCGGCGCCCGGCGGCUCGAGCCCGGGUAAGUUGAAUCCGUCUGCAUGCCGCCGGGCGCCAUGCCUGCAGGUCGACUCUAGAAAACAUG,binding signal (log2 enrichment (interaction score)),[1],-2.76
same,binding signal (log2 enrichment (interaction score)),[2],-4.84
same,binding signal (log2 enrichment (interaction score)),[4],-7.88
same,binding signal (log2 enrichment (interaction score)),[5],-1.64
GGCUAGAACUAGUGGAUCCCCCGGCGCCCGGCGGCUCGAGCCCGGGUAAGUAGUUGAAGUCUGCAUGCCGCCGGGCGCCAUGCCUGCAGGUCGACUCUAGAAAACAUG,binding signal (log2 enrichment (interaction score)),[1],< -5.45
same,binding signal (log2 enrichment (interaction score)),[6],-6.87
GGCUAGAACUAGUGGAUCCCCCGGCGCCCGGCGGCUCGAGCCCGGGUAAGAUUGCGUGGUCUGCAUGCCGCCGGGCGCCAUGCCUGCAGGUCGACUCUAGAAAACAUG,binding signal (log2 enrichment (interaction score)),[1],-7.4
same,binding signal (log2 enrichment (interaction score)),[6],-6.67

# 2 records drawn at random from those above, as already listed:
sequence,measurement,setting,value
GGCUAGAACUAGUGGAUCCCCCGGCGCCCGGCGGCUCGAGCCCGGGUAAGUGUGCGUAGUCUGCAUGCCGCCGGGCGCCAUGCCUGCAGGUCGACUCUAGAAAACAUG,binding signal (log2 enrichment (interaction score)),[7],-0.8
GGCUAGAACUAGUGGAUCCCCCGGCGCCCGGCGGCUCGAGCCCGGGUAAGUAGUUGAAGUCUGCAUGCCGCCGGGCGCCAUGCCUGCAGGUCGACUCUAGAAAACAUG,binding signal (log2 enrichment (interaction score)),[6],-6.87
